Source: article PMC2980493
These are yes or no findings as the source states them, for the method shown. Binding seen in cells or lysates may run through a third protein. For some of these results: Binding can be weak; no strength is given.

The chains behind the UniProt entries cited, without tags or fusion partners. Where a name states a change or a piece, a line headed by the entry shows the natural chain unless it says otherwise.
UniProt P48432: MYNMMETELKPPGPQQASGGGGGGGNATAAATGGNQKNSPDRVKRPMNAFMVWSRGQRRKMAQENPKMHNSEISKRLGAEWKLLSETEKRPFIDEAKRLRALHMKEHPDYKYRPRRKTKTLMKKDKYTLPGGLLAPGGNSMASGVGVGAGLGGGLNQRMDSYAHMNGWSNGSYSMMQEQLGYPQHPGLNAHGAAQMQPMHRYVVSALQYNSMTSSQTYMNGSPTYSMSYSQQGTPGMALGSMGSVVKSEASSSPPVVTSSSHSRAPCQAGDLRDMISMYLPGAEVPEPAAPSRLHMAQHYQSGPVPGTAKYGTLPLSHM
UniProt O09106: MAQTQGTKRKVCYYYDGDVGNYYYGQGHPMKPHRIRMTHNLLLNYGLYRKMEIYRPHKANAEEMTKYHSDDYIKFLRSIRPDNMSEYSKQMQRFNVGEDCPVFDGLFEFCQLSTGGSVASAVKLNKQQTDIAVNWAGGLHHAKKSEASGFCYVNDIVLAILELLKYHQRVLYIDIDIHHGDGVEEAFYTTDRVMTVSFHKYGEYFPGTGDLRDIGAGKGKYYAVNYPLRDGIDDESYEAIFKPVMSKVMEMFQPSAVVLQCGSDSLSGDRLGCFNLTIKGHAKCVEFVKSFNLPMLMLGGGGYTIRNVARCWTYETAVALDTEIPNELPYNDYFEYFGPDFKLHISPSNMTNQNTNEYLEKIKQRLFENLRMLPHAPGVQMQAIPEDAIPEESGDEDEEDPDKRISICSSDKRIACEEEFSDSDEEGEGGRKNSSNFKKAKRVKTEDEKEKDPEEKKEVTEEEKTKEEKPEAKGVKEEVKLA
UniProt Q8BX22: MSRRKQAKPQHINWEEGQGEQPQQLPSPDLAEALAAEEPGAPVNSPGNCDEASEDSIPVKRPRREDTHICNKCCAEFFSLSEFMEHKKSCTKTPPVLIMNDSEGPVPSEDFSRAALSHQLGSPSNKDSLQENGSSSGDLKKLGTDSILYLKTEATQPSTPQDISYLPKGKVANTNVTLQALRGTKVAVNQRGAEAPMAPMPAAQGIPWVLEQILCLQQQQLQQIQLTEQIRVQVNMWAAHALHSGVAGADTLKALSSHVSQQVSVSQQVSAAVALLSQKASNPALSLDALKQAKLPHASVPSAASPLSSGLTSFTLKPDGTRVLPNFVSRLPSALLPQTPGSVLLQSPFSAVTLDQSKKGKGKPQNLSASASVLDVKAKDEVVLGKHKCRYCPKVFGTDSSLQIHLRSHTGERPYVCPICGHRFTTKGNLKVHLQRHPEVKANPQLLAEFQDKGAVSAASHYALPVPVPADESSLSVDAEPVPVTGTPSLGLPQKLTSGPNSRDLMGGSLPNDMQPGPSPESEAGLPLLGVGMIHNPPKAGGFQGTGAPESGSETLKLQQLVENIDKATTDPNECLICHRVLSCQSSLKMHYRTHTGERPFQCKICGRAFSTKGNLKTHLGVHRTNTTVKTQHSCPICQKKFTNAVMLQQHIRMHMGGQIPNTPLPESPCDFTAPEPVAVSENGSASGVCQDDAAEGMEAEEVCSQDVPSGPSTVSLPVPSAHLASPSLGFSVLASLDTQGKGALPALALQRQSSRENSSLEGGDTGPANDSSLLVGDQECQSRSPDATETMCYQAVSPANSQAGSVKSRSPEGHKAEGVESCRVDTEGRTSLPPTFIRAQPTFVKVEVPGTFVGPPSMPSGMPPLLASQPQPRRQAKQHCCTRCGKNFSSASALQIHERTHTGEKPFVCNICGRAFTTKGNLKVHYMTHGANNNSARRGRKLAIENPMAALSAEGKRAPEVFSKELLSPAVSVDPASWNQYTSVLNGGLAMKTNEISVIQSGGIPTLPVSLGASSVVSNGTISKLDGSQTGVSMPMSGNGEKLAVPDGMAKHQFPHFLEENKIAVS
UniProt Q92769: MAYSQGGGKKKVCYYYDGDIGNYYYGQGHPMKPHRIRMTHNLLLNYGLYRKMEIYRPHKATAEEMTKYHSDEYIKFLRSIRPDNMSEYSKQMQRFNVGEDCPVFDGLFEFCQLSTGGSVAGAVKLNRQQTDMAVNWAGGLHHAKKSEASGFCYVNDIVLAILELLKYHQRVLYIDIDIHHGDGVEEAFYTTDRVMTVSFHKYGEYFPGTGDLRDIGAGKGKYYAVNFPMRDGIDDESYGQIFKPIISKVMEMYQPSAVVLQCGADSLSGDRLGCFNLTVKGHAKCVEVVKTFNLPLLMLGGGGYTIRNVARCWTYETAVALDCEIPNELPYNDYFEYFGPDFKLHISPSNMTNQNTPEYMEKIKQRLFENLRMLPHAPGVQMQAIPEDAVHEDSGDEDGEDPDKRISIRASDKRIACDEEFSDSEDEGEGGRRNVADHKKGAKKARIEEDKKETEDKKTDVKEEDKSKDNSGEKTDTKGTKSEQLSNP

Assays:
Flag-Sox2-ΔHMG [1] = biological target: Flag-Sox2-ΔHMG (UniProt P48432); assay: co-IP; 293T cells transiently transfected with both partners; nuclear extracts (NE-PER kit) 1 day later; Flag-Sox2 constructs precipitated on anti-Flag M2-beads; eluates probed by western blot
Flag-Sox2-ΔHMG [2] = biological target: Flag-Sox2-ΔHMG (UniProt P48432); assay: co-IP; 293T cells transiently transfected with Flag-Sox2 constructs only; endogenous HDAC2; nuclear extracts, anti-Flag M2-beads, western blot

Substance | binding (Flag-Sox2-ΔHMG [1]) | binding (Flag-Sox2-ΔHMG [2])
GFP-Sox2-ΔHMG (from UniProt P48432) | binds | 
HDAC1 (from UniProt O09106 1-482) (enzyme) | binds | 
Sall4 (from UniProt Q8BX22 1-1067) | binds | 
endogenous HDAC2 (from UniProt Q92769 1-488) (enzyme) |  | no binding
